Values from PubChem BioAssay AID1259308 (NCATS, 2017)

Test: 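Knock-downs that increase output of a recombinant reporter protein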 (primary screen)
Cell system: human HEK293 embryonic kidney cells stably expressing firefly luciferase (HEK-CMV-Luc2-Hygro)
Reagents: single siRNA against human genes, 0.8 pmol siRNA per well
Time to read-out: 72 h
Measurement: 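Reporter luminescence and viable-cell signal on separate replicate plates, given as percent of non-targeting control and median/MAD z-scores, plus per-cell luciferase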
Scale: total luciferase, z-score and total luciferase, % of control: higher = more reporter protein produced; luciferase per cell, z-score: higher = more reporter output per viable cell; viable cells, % of control: higher = more viable cells
Rule for the call: 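Active when the median/MAD z-score for overall luciferase is greater than 3; a gene was taken forward for validation with new siRNAs if at least two of its three siRNAs passed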
Meaning of the calls: active = raised luciferase; inactive = no rise
The whole screen tested about 59,000 reagents; this is an unselected part. About 1,510 of them (2.6%) were called active. 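Calls use total luciferase alone and ignore viability, so some active siRNAs may act by altering cell number.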 A number with no mark means an inactive call. The numbers tell different reagents against one gene apart. No sequences are given here.

no.	target gene	reagent	total luciferase, z-score	total luciferase, % of control	luciferase per cell, z-score	viable cells, % of control
1	POLRMT (GeneID 5442)	1	0.0667	83.2	0.298	86
2	POLRMT (GeneID 5442)	2	-0.151	78.9	-0.579	103
3	POLRMT (GeneID 5442)	3	0.0687	83.3	-0.551	108
4	PNRC1 (GeneID 10957)	1	3.69 (active)	155	1.98	103
5	PNRC1 (GeneID 10957)	2	-0.853	64.9	-0.743	88.2
6	PNRC1 (GeneID 10957)	3	-0.538	71.2	0.121	77.1
7	ALX4 (GeneID 60529)	1	-0.354	74.8	-0.174	87.6
8	ALX4 (GeneID 60529)	2	-1.31	55.8	-1.68	96.9
9	ALX4 (GeneID 60529)	3	-0.501	71.9	-0.255	86
10	AOPEP (GeneID 84909)	1	-0.496	72	-0.663	95.8
11	AOPEP (GeneID 84909)	2	0.107	84	-0.411	105
12	AOPEP (GeneID 84909)	3	0.417	90.2	0.224	95
13	XKR6 (GeneID 286046)	1	0.488	91.6	0.00369	102
14	XKR6 (GeneID 286046)	2	-0.294	76	-0.281	91.5
15	XKR6 (GeneID 286046)	3	-1.79	46.2	-1.78	82.5
16	HS3ST1 (GeneID 9957)	1	0.0509	82.9	-0.464	105
17	HS3ST1 (GeneID 9957)	2	-0.488	72.2	-0.508	92.2
18	HS3ST1 (GeneID 9957)	3	-0.0227	81.4	-0.23	96.7
19	GNB2 (GeneID 2783)	1	-0.463	72.7	-0.0996	83.4
20	GNB2 (GeneID 2783)	2	0.272	87.3	-0.0714	99.4
21	GNB2 (GeneID 2783)	3	-0.606	69.8	-0.244	83.2
22	GYS2 (GeneID 2998)	1	0.346	88.8	0.163	95
23	GYS2 (GeneID 2998)	2	-0.208	77.8	0.0597	85.5
24	GYS2 (GeneID 2998)	3	-1.1	60	-1.37	96.2

Active calls, of those listed so far:
target gene	reagent	total luciferase, z-score	total luciferase, % of control	luciferase per cell, z-score	viable cells, % of control
PNRC1 (GeneID 10957)	1	3.69 (active)	155	1.98	103

Additional records follow.
no.	target gene	reagent	total luciferase, z-score	total luciferase, % of control	luciferase per cell, z-score	viable cells, % of control
25	HMGN2P46 (GeneID 283651)	1	-0.166	78.6	1.11	65.6
26	HMGN2P46 (GeneID 283651)	2	2.86	139	3.52	61.4
27	HMGN2P46 (GeneID 283651)	3	0.000512	81.9	-0.565	106
28	LDLRAD4 (GeneID 753)	1	-0.371	74.5	-0.176	87.2
29	LDLRAD4 (GeneID 753)	2	0.176	85.4	0.706	79.2
30	LDLRAD4 (GeneID 753)	3	4.01 (active)	162	2.59	91.4
31	PAXBP1 (GeneID 94104)	1	0.348	88.8	-0.0839	101
32	PAXBP1 (GeneID 94104)	2	1.46	111	1.57	81.9
33	PAXBP1 (GeneID 94104)	3	1.42	110	1.34	86.4
34	MS4A6A (GeneID 64231)	1	-0.647	69	-0.242	82.2
35	MS4A6A (GeneID 64231)	2	-0.582	70.3	0.254	73.5
36	MS4A6A (GeneID 64231)	3	-2.17	38.7	-1.31	61.1
37	ANXA5 (GeneID 308)	1	3.26 (active)	147	1.32	116
38	ANXA5 (GeneID 308)	2	-1.69	48.3	-1.06	71.4
39	ANXA5 (GeneID 308)	3	-0.665	68.7	0.0738	75.3
